Laboratory results as given in publication PMC10298151.
Results are given in words; binding and its absence hold for the method and conditions named. In cells and extracts the contact can be indirect. Some binding calls cover weakened binding; strength is not graded here.

Protein sequences, listed by entry. Tags and fused reporters are not part of them. Lines headed by an entry give the natural chain unless they say otherwise; changes in a name come on top. Chains listed by the source or under a name are the forms on record and can include a tag or linker.
UniProt Q00987: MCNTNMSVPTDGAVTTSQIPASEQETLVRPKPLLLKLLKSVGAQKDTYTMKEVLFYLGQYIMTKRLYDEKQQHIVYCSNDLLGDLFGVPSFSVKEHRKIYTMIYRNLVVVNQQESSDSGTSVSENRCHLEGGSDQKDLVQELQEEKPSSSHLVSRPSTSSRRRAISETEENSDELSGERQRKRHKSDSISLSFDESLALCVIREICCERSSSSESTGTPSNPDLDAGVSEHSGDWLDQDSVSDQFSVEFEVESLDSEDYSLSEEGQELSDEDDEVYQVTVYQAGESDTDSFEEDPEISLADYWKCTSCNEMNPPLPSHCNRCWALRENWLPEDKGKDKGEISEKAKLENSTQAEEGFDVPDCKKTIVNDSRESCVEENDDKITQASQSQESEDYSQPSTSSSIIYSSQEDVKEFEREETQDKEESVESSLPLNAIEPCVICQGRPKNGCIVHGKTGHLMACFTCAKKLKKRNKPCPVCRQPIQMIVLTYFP
UniProt P14416: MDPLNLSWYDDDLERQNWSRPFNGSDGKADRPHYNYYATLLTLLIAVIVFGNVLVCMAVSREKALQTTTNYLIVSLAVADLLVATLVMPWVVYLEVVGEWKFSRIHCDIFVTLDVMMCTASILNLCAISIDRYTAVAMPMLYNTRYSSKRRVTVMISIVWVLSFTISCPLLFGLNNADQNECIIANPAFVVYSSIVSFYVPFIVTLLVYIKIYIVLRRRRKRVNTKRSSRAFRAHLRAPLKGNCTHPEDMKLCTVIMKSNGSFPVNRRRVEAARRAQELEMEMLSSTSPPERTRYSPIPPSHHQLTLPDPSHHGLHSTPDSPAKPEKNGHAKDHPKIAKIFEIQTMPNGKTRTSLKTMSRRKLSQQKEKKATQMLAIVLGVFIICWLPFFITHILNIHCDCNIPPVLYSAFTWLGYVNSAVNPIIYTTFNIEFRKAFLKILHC
FLAG-[βarr]D2R (P14416, form named): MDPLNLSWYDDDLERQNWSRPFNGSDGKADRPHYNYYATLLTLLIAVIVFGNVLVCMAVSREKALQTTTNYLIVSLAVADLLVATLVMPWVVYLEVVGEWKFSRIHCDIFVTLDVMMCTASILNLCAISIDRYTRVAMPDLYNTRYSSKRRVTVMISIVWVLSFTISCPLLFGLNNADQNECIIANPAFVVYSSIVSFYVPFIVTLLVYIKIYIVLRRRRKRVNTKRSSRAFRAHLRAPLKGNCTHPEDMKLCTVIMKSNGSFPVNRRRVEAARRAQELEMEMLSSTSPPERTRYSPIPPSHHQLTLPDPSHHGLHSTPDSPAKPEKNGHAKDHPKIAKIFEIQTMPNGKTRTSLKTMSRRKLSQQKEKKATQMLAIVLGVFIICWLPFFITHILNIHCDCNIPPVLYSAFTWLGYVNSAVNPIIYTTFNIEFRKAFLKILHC
UniProt P25098: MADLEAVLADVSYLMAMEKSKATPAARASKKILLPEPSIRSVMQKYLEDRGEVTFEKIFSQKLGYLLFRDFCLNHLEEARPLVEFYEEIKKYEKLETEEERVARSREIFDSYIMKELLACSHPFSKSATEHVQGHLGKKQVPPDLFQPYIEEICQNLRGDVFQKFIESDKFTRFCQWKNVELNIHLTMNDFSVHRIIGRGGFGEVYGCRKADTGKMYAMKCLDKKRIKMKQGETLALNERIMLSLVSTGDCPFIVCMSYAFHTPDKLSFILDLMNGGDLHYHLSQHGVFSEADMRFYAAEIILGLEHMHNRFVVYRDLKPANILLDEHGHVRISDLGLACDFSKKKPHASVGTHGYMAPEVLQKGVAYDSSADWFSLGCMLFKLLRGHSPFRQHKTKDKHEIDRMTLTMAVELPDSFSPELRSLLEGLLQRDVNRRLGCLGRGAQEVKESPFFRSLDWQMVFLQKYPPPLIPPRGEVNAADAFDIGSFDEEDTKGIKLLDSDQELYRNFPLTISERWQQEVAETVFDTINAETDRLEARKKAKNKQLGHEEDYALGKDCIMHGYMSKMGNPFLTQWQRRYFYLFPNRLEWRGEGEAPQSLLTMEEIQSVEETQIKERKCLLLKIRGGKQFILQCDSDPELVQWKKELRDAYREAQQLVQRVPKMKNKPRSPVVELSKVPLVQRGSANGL

What was measured:
[1] = target: FLAG-Mdm2 (UniProt Q00987); assay: co-IP; HEK 293 cells co-transfected, treated with vehicle or 10 μM DA for 2 min; lysates incubated with anti-FLAG agarose beads 2-3 h at 4 °C, washed three times, immunoblot
[2] = target: FLAG-[βarr]D2R (human) (UniProt P14416); assay: as above
[3] = target: FLAG-Mdm2 (UniProt Q00987); assay: condition: only cells pretreated with 10 μM PP2 for 30 min; co-IP; as a1, but cells pretreated with 10 μM PP2 (Src family kinase inhibitor) for 30 min before 10 μM DA for 2 min; anti-FLAG beads, immunoblot with anti-GRK2
[4] = target: FLAG-[βarr]D2R (human) (UniProt P14416); assay: as above

binding [1] | binding [2] | binding [3] | binding [4] | Substance
binds | binds |  |  | GFP-GRK2 (from UniProt P25098 1-689) (enzyme)
binds | binds | no binding | no binding | GRK2 (from UniProt P25098 1-689) (enzyme)
